# Measured values reported in the supplement of paper PMC7858590.
# ± gives the standard deviation of the averaged measurements. The full ranking holds about 3,800 compounds; the median of “cell shape (eccentricity) Z-score vs DMSO control” is about 1.1, and the lowest 2% start at about -4.7. The list shows a part of the results.
# Tested on: human monocyte-derived macrophages (M0)
# Assay: cell shape (eccentricity) Z-score vs DMSO control; higher = more elongated, M2-like morphology
# Details: 20 µM; 24 h; macrophage state: M0 (M-CSF)
row,Compound,cell shape (Z-score)
1,C[C@H](CO)N1C[C@H](C)[C@H](CN(C)Cc2ccc(Cl)c(Cl)c2)Oc2ccc(N(C)C)cc2C1=O,3.69
2,O=C(CCc1ccc(O)cc1)CC(CCc1ccc(O)cc1)O[C@@H]1OC[C@@H](O)[C@H](O)[C@H]1O (stereo not given in full),-1.8
3,COC(=O)[C@@H]1CC(=O)O[C@H](C)C/C=C/C=C/[C@H](O)[C@H](C)C[C@H](CC=O)[C@H](OC2O[C@H](C)[C@@H](OC3C[C@@](C)(O)[C@@H](OC(=O)CC(C)C)[C@H](C)O3)[C@H](N(C)C)[C@H]2O)[C@H]1OC (stereo not given in full),-2.11
4,O=C1C[C@H](c2ccc(O)cc2)Oc2c1c(O)cc(O)c2[C@@H]1C(=O)c2c(O)cc(O)cc2O[C@H]1c1ccc(O)cc1,3.49
5,CC(C)ON([C@@H](C(=O)NO)C(C)C)S(=O)(=O)c1ccc(-c2ccccc2)cc1,-0.0527
6,Cc1nn(-c2ccccc2)c(C)c1C=NN1CCN(Cc2ccccc2)CC1,3.1
7,C[C@@H]1O[C@@H](Oc2ccc(-c3coc4cc(O[C@@H]5O[C@@H](C)[C@H](O)[C@@H](O)[C@H]5O)ccc4c3=O)cc2)[C@H](O)[C@H](O)[C@H]1O,-1.35
8,Cc1c[nH]c2ccccc12,1.98
9,C[C@@H]1O[C@@H](Oc2ccc(C3Oc4cc(O)cc(O)c4C(=O)C3O)cc2O)[C@H](O)[C@H](O)[C@H]1O (stereo not given in full),-2.03
10,CC1(C)CC[C@]2(C(=O)O[C@@H]3O[C@H](CO)[C@@H](O)[C@H](O)[C@H]3O)CC[C@]3(C)C(=CCC4[C@@]5(C)CC[C@H](O[C@@H]6O[C@H](C(=O)O)[C@@H](O[C@@H]7O[C@H](CO)[C@@H](O)[C@H](O)[C@H]7O)[C@H](O)[C@H]6O[C@@H]6O[C@H](CO)[C@@H](O)[C@H](O)[C@H]6O)C(C)(C)C5CC[C@]43C)C2C1 (stereo not given in full),2.41
11,CC(=O)N1CCN(c2ccc(OCC3COC(Cn4ccnc4)(c4ccc(Cl)cc4Cl)O3)cc2)CC1 (stereo not given),-0.865
12,CC(C)C[C@@H](C(=O)N[C@H](C(=O)OC1CCCC1)c1ccccc1)[C@H](O)C(=O)NO,3.43
13,COc1cc(/C=C/C(=O)N2CCC=CC2=O)cc(OC)c1OCCN(C)CCOc1c(OC)cc(/C=C/C(=O)N2CCC=CC2=O)cc1OC,-1.38
14,NC(=O)N1c2ccccc2CC(=O)c2ccccc21,1.73
15,COc1cc2nccc(Oc3ccc(NC(=O)Nc4cc(C)on4)c(Cl)c3)c2cc1OC,9.02
16,CN(C)CCOC(C)(c1ccccc1)c1ccccn1 (stereo not given),4.82
17,COc1cccc(-c2cc(=O)c3ccccc3o2)c1N,1.41
18,CCCC(O)c1ccc(C)cc1CCCCCC(=O)O (stereo not given),0.984
19,O=C(c1ccc(O)cc1)c1c(O)cc(O)c([C@@H]2O[C@H](CO)[C@@H](O)[C@H](O)[C@H]2O)c1O,1.87
20,COc1ccccc1OCC(O)CNC(C)C (stereo not given),0.567
21,CN(C(=O)C(Cl)Cl)c1ccc(OC(=O)c2ccco2)cc1,0.773
22,CCc1cc(C(=N)S)ccn1,2.08
23,CC(C)CC1NC(=O)C(C)NC1=O (stereo not given),-5.83
24,O=c1cc(-c2ccccc2)oc2c(O)c(O)ccc12,2.09
25,COc1ccc(CCC(=O)O)c(O[C@@H]2O[C@H](CO)[C@@H](O)[C@H](O)[C@H]2O)c1,-1.87
26,CCC/C=C/C=C/C1CC(O)C(O)C1C(=O)O (stereo not given),0.135
27,CCCC1OC2CC3C4CCC5=CC(=O)C=CC5(C)C4C(O)CC3(C)C2(C(=O)CO)O1 (stereo not given),-2.27
28,COc1cc(/C=C/C=O)cc(OC)c1O,-0.421

row,Compound,cell shape (Z-score)
1,O=C(O)[C@@]1(CCCCCCOc2ccc(Cl)cc2)CO1,1.33
2,COc1cc(C2c3c(cc(OC)c(O)c3OC)CC(CO)C2COC2OCC(O)C(O)C2O)cc(OC)c1O (stereo not given),0.924
3,C=C(C)C1CCC2(C(=O)O)CCC3(C)C(CCC4C5(C)C(C=O)C(O)C(C)(C)C5CCC43C)C12 (stereo not given),0.621
4,C/C(=C/C(=O)O)CCC1C(C)CCC2C(C)(C=O)C(O)CCC12C (stereo not given),0.69 ± 0.12
5,CS(=O)(=O)c1ccc(Cn2c3c(c4cc(F)cc(F)c42)CCCC3CC(=O)O)cc1 (stereo not given),0.493
6,COC(=O)Nc1nc2ccc(Sc3ccccc3)cc2[nH]1,-3.02
7,COc1ccc2c(c1OC)C(=O)O[C@H]2[C@H]1c2c(cc3c(c2OC)OCO3)CCN1C,3.82
8,CC(C)C(O)(C(=O)OCc1ccc(O[C@@H]2O[C@H](CO)[C@@H](O)[C@H](O)[C@H]2O)cc1)C(C)O (stereo not given in full),2.15 ± 2.6
9,CCc1nc(N)nc(N)c1-c1ccc(Cl)cc1,-0.187
10,OC[C@H]1O[C@@H](n2cnc3c(NCc4ccco4)ncnc32)[C@H](O)[C@@H]1O,-3.05
11,CC1(C)O[C@@H]2CC3C4C[C@H](F)C5=CC(=O)CC[C@]5(C)C4[C@@H](O)C[C@]3(C)[C@]2(C(=O)CO)O1 (stereo not given in full),-0.585
12,CC(C)NCC(O)COc1ccc(CCOCC2CC2)cc1 (stereo not given),1.97
13,C=C1C(=O)O[C@@H]2C3=C(C)CC[C@]34O[C@@H](C[C@@H]4C)[C@H]12,-3.31 ± 3.9
14,OC[C@H]1O[C@@H](OCc2ccccc2)[C@H](O[C@@H]2OC[C@](O)(CO)[C@H]2O)[C@@H](O)[C@@H]1O,-0.784 ± 0.66
15,CCSC(=N)N,-1.01
16,OC[C@H](Cc1ccccc1)Nc1nc(Oc2ccc3c(c2)CCC3)nc2c1ncn2Cc1ccc(-c2ccccc2)cc1,9.9
17,COc1cccc2oc(-c3ccccc3)cc(=O)c12,-0.482 ± 2.3
18,COC1=CC(=O)CC(C)C12Oc1cc(OC)cc(OC)c1C2=O (stereo not given),-1.79
19,Cc1ncc([N+](=O)[O-])n1CC(O)CCl (stereo not given),1.9
20,C=C1CC[C@H]2[C@](C)(CCC[C@]2(C)C(=O)OC)[C@H]1CC/C(C)=C/C(=O)O,1.3
21,C[N+]1(C)C2CC[C@H]1C[C@@H](OC(=O)C(O)c1ccccc1)C2 (stereo not given in full),1.91
22,COc1cc(C=Cc2ccc(OC)cc2OC)cc(OC)c1,3.14
23,CC[C@H](C)C(=O)O[C@H]1C[C@@H](C)C=C2C=C[C@H](C)[C@H](CC[C@@H]3C[C@@H](O)CC(=O)O3)[C@H]21,-1.06
24,OC1C=CC(O)C23OC12C(O)C=CC31Oc2cccc3cccc(c23)O1 (stereo not given),-0.329
25,CN=c1nc(-c2ccccc2)n(-c2ccccc2)s1,4.02
26,OC(CCCN1CCN(c2ncc(F)cn2)CC1)c1ccc(F)cc1 (stereo not given),3.37
27,C=C(C)C(=O)O[C@@H]1C2=C(C)C(=O)OC2(O)CC23OC2CC[C@H](C)[C@@]13C (stereo not given in full),1.41

# 4 consecutive entries from above, for reference:
row,Compound,cell shape (Z-score)
18,COC1=CC(=O)CC(C)C12Oc1cc(OC)cc(OC)c1C2=O (stereo not given),-1.79
19,Cc1ncc([N+](=O)[O-])n1CC(O)CCl (stereo not given),1.9
20,C=C1CC[C@H]2[C@](C)(CCC[C@]2(C)C(=O)OC)[C@H]1CC/C(C)=C/C(=O)O,1.3
21,C[N+]1(C)C2CC[C@H]1C[C@@H](OC(=O)C(O)c1ccccc1)C2 (stereo not given in full),1.91
